Data as given in publication PMC8496721.
Where two headings read alike, the source gives them in different places. No constants are given. Whether binding was seen depends on the method and setting. Binding seen in cells or lysates may run through a third protein. Some binding calls cover weakened binding; strength is not graded here. Where a sequence is shown, tags or fusion partners need not be part of it.

Sequences of proteins named here, by UniProt entry; tags and fusion partners are left off.
UniProt P27323: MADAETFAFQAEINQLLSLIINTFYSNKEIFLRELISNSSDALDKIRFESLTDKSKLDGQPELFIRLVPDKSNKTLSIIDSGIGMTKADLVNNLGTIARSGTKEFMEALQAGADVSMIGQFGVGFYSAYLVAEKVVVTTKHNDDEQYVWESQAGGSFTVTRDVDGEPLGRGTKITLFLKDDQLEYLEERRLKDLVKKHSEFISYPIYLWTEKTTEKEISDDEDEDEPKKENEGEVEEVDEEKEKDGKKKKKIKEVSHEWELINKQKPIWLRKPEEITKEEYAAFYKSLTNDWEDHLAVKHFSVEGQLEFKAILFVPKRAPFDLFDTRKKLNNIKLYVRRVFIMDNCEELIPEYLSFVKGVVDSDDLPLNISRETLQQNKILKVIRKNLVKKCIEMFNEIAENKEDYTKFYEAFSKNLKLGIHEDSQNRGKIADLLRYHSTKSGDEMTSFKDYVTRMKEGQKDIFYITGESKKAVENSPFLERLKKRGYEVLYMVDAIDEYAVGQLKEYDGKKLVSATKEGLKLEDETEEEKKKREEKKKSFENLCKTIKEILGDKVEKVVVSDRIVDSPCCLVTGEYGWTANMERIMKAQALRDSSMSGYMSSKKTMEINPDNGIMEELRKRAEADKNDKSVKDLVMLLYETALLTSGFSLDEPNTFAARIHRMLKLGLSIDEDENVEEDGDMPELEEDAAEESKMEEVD
UniProt Q38931: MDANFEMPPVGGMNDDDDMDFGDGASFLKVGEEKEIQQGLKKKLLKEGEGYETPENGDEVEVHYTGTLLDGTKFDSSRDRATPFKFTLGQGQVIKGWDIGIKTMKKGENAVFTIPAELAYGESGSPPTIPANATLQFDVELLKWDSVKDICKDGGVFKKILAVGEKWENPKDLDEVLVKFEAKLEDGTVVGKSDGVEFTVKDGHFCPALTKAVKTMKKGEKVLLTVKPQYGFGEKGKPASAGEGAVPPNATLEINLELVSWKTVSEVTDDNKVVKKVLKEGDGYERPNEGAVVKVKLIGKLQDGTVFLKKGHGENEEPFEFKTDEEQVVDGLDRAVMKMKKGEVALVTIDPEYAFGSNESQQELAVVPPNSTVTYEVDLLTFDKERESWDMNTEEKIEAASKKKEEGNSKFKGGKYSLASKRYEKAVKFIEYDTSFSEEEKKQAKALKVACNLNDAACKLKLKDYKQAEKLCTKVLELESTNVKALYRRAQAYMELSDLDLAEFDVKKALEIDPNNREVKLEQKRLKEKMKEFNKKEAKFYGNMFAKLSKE

Key:
[1] = molecular target: T1, NBR1 fused to a YFP half (BiFC) (Arabidopsis thaliana) (UniProt Q9SB64); assay: split reporter; BiFC with YFP halves (2in1 vectors) in agro-infiltrated Nicotiana benthamiana leaves, confocal microscopy 2 d after infiltration
T1 sequence: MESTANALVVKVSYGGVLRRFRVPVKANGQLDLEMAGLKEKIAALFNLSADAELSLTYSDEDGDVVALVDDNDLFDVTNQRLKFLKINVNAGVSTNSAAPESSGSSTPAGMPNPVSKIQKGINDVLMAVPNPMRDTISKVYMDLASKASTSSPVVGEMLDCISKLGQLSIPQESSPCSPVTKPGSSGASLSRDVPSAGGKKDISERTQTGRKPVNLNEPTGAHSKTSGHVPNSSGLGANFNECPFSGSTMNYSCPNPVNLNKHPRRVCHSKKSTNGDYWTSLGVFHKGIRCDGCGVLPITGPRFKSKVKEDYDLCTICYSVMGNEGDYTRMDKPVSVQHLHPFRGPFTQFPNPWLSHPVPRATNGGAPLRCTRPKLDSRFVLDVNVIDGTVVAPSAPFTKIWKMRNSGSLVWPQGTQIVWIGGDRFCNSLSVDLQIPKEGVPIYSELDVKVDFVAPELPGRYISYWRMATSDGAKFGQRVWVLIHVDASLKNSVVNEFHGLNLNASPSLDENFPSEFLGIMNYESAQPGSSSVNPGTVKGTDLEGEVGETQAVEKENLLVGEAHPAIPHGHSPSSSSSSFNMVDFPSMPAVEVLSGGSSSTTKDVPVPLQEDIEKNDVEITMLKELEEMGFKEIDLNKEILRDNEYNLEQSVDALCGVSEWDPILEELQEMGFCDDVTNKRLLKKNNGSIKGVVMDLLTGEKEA

[2] = molecular target: T2, GFP-ATG8a (Arabidopsis thaliana) (UniProt Q8LEM4); assay: co-IP; anti-GFP antibody microbeads (Miltenyi) on total protein extracts of primed, cross-linked GFP-ATG8a or GFP seedlings, 2 d into the HS recovery phase; 50 mM Tris-HCl pH 7.5, 150 mM NaCl, 2% Tween-20; 6 h at 4°C; immunoblot
T2 sequence: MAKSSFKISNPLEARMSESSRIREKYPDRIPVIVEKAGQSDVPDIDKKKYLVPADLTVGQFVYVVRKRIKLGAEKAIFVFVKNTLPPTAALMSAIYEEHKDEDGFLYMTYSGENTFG

[3] = molecular target: T3, NBR1-GFP (Arabidopsis thaliana) (UniProt Q9SB64); assay: co-IP; anti-GFP antibody beads on total protein extracts of primed, cross-linked pNBR1:NBR1-GFP or 35S:GFP seedlings, 2 d into the HS recovery phase; immunoblot with anti-HSP90 and anti-FBP antibodies
T3 sequence: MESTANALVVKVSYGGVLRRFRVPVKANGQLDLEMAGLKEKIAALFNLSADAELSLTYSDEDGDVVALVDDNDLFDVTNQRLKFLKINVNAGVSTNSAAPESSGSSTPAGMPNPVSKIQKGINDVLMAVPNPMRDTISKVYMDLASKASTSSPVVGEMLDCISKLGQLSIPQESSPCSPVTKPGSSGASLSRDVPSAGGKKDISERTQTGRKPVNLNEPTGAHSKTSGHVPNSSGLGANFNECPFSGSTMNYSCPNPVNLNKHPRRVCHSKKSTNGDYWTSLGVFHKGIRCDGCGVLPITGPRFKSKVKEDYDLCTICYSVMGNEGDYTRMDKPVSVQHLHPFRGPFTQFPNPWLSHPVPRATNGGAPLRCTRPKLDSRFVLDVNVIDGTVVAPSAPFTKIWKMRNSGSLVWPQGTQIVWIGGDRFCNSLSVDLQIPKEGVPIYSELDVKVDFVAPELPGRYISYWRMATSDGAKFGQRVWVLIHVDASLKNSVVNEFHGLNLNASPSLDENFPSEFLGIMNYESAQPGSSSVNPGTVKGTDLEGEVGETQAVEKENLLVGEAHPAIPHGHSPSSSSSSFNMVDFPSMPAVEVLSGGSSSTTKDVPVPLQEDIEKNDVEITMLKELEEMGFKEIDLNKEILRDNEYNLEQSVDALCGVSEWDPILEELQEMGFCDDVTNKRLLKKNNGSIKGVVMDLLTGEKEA

[4] = molecular target: T2, GFP-ATG8a (Arabidopsis thaliana); assay: co-IP; anti-GFP antibody microbeads (Miltenyi) on total protein extracts of primed, cross-linked GFP-ATG8a or GFP seedlings, 2 d into the HS recovery phase; 50 mM Tris-HCl pH 7.5, 150 mM NaCl, 2% Tween-20; 6 h at 4°C; immunoblot; remark: listed apart in the source

Q: How did the binding [1] turn out when “HSP90.1 fused to a YFP half (BiFC) (from UniProt P27323 1-700)” was run?
A: binds

Q: Which binding [1] does the source give for “ROF1 fused to a YFP half (BiFC) (from UniProt Q38931 1-551)” here?
A: binds

Q: How did the binding [2] turn out when ROF1-RFP (from UniProt Q38931 1-551) was run?
A: binds

B1: FBP/FBPASE (fructose 1,6-bisphosphatase) (protein, UniProt Q9MA79 1-341)
chain: MDHAADAHRTDLMTITRFVLNEQSKYPESRGDFTILLSHIVLGCKFVCSAVNKAGLAKLIGLAGETNIQGEEQKKLDVLSNDVFVNALVSSGRTSVLVSEEDEEATFVEPSKRGKYCVVFDPLDGSSNIDCGVSIGTIFGIYTLDHTDEPTTADVLKPGNEMVAAGYCMYGSSCMLVLSTGTGVHGFTLDPSLGEFILTHPDIKIPNKGNIYSVNEGNAQNWDGPTTKYVEKCKFPKDGSPAKSLRYVGSMVADVHRTLLYGGIFLYPADKKSPNGKLRVLYEVFPMSFLMEQAGGQAFTGKKRALDLVPEKIHERSPIFLGSYDDVEEIKALYAEEEKKN
Q: Which results are given for B1?
A: binding [3]: no binding; binding [4]: no binding
